Results as given in PMC8395040 (International Journal of Molecular Sciences, 2021).
Where “and” joins values, the source holds several entries; their conditions need not be identical. Identical values can stand only once.

Experiments:
Format in all cases: cell-based, human
[1] = system: HCT116; assay: MTT cytotoxicity assay, HCT116; details: IC50 HEK293/IC50 HCT116; HEK >50 taken as 50 µM
Description: (§1) Cytotoxicity assays were performed by using the MTT reduction method as described previously. Briefly, cancer cell lines were plated in flat-bottom 96-well plates at a cell concentration of 5 × 10^3 cells/well for the fastest growing lines, such as HEK293 and HT29 cells and 1 × 10^4 cells/well for more slowly growing lines, such as HCT116, H1975, BxPC-3, AsPC-1, B16-F10 and DAOY. Then, cells were incubated with the synthesised compounds at different concentrations (from 0.05 to 50 µM) in 200 µL with 10% FBS in RPMI 1640 or DMEM F12 culture medium at 37 °C for 72 h. Later, 10 µL of MTT were added at a final concentration of 0.5 mg/mL, incubated at 37 °C for 4 h, and then solubilised with 10% sodium dodecyl sulphate (SDS) in 0.1 mM HCl and incubated overnight at 37 °C. Formazan formation was measured at 570 nm in a multiwell plate reader (Cytation 5, Biotek Instruments, Winooski, VT, USA). Three independent biological replicates were performed.

[2] = system: H1975; assay: MTT cytotoxicity assay, H1975; details: IC50 HEK293/IC50 H1975; HEK >50 taken as 50 µM
Description: as §1

[3] = system: AsPC-1; assay: MTT cytotoxicity assay, AsPC-1; details: IC50 HEK293/IC50 AsPC-1; HEK >50 taken as 50 µM
Description: as §1

[4] = system: HT29; assay: MTT cytotoxicity assay, HT29; details: IC50 HEK293/IC50 HT29; HEK >50 taken as 50 µM
Description: as §1

[5] = system: BxPC-3; assay: MTT cytotoxicity assay, BxPC-3; details: IC50 HEK293/IC50 BxPC-3; HEK >50 taken as 50 µM
Description: as §1

Row | SMILES | SI HCT116 [1] | SI H1975 [2] | SI AsPC-1 [3] | SI HT29 [4] | SI BxPC-3 [5]
1 | CCCCn1cnc2c(-c3ccc(OC(F)(F)F)cc3)nc(NC3CCCC3)nc21 [Compound 4a, 9-Butyl-N-cyclopentyl-6-(4-(trifluoromethoxy)phenyl)-9H-purin-2-amine] | 1.6 | 1.5 | 2.5 |  | 
2 | CCCCCCn1cnc2c(-c3ccc(OC(F)(F)F)cc3)nc(NC3CCCC3)nc21 [Compound 4c, N-cyclopentyl-9-hexyl-6-(4-(trifluoromethoxy)phenyl)-9H-purin-2-amine] |  | 2.6 | 1.0 |  | 
3 | CCCCCn1cnc2c(-c3ccc(OC(F)(F)F)cc3)nc(NC3CCCCC3)nc21 [Compound 4e, N-cyclohexyl-9-pentyl-6-(4-(trifluoromethoxy)phenyl)-9H-purin-2-amine] |  | 2.2 | 1.0 |  | 
4 | CCCCCn1cnc2c(-c3ccc(OC(F)(F)F)cc3)nc(NCC3CCCCC3)nc21 [Compound 4h, N-(cyclohexylmethyl)-9-pentyl-6-(4-(trifluoromethoxy)phenyl)-9H-purin-2-amine] |  | 1.3 | 1.0 |  | 
5 | CCCCCn1cnc2c(-c3ccc(OC(F)(F)F)cc3)nc(N3CCN(c4ccncc4)CC3)nc21 [Compound 4r, 9-Pentyl-2-(4-(pyridin-4-yl)piperazin-1-yl)-6-(4-(trifluoromethoxy)phenyl)-9H-purine] | 2.6 | 6.5 | 1.0 |  | 
6 | CCCCCCn1cnc2c(-c3ccc(OC(F)(F)F)cc3)nc(N3CCN(c4ccncc4)CC3)nc21 [Compound 4s, 9-Hexyl-2-(4-(pyridin-4-yl)piperazin-1-yl)-6-(4-(trifluoromethoxy)phenyl)-9H-purine] | 38 | 33 | 29 and >29 | 3.3 | 12
7 | O=c1[nH]cc(F)c(=O)[nH]1 [Compound 5-FU, 5-fluorouracil, reference compound] | 0.03 |  |  | 1.6 | 
8 | COc1cc([C@@H]2c3cc4c(cc3[C@@H](O[C@@H]3O[C@@H]5CO[C@@H](C)O[C@H]5[C@H](O)[C@H]3O)[C@H]3COC(=O)[C@H]23)OCO4)cc(OC)c1O [Etoposide, reference compound] | 0.9 | 0.2 |  |  | 
9 | Nc1ccn([C@@H]2O[C@H](CO)[C@@H](O)C2(F)F)c(=O)n1 [Gemcitabine, reference compound] |  |  | 25 |  | 38
